The assay can be described thus: qHTS for identification of novel therapeutic agents for treatment of microphthalmiaassociated transcription factor (MiT) renal cell carcinoma (RCC) (AID 1963991). Conditions: CellTiter-Glo, 48 h; for z-score: stronger effect = lower value. A digest of the protocol:
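UOK109/UOK124/UOK145 (TFE3 fusions, three partners); 500 cells/well; MIPE v4.0, 1912 cpds, 11 conc.; 48 h, 37 C; CellTiter-Glo, 15 min RT; lum. Norm.: DMSO 100%, empty 0%.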
A general note: qHTS replaces the single test concentration by a dilution series.

The mark [1] stands for this setting: TFE3-RCC UOK109 viability, measured here: UOK109 Z-AUC.
[2] abbreviates: TFE3-RCC viability, measured here: UOK124 Z-AUC.
The mark [3] stands for this setting: TFE3-RCC viability, measured here: UOK124 cell viability.
The mark [4] stands for this setting: TFE3-RCC viability, measured here: UOK145 Z-AUC.
Setting [5] is: TFE3-RCC viability, measured here: UOK145 cell viability.

Some of the results follow. These are further read-outs of the screen, such as a control signal, another cell line or another target. No call is given for them. Compounds called inactive in the main read-out are mostly missing here. Potencies come from curve fits of mixed quality, noted in brackets.

By AC50 is commonly meant the midpoint of the concentration-response curve, whichever way the signal moves. For the compound `O=S(=O)(NCCNCC=Cc1ccc(Br)cc1)c1cccc2cnccc12`, the z-score reads like this: under setting [1], 0.771; under setting [2], 1.29; under setting [4], -0.311. The concentration at half-maximal activity (AC50) is 20.9 µM [falling, partial curve] under setting [3] and 23.5 µM [falling, partial curve] under setting [5].
For the compound `Cc1cn2c(-c3cn[nH]c3)cnc2c(Nc2ccc(C(=O)N3CCNCC3)cc2F)n1`, the z-score by setting is: under setting [1], -0.241; under setting [2], -0.0216; under setting [4], -0.0145. Moreover, the AC50 under setting [3] was 11.8 µM [falling, partial curve] and the AC50 under setting [5] is 18.7 µM [falling, partial curve].
Regarding `CN(C)S(=O)(=O)c1ccc2c(c1)C(=Cc1cc3c([nH]1)CCCC3)C(=O)N2`, the z-score under setting [1] was determined as 0.331, the z-score under setting [2] is 0.387 and the z-score under setting [4] is 0.605. Moreover, the AC50 under setting [3] was 16.6 µM [falling, partial curve, poor fit] and the AC50 under setting [5] was 18.7 µM [falling, partial curve, poor fit].
Regarding `Cc1cc(CS(=O)(=O)c2ccccc2)cc(OCc2ccc(CN3CCC[C@H]3CO)cc2)c1`, the z-score was -0.173 under setting [1], -1.44 under setting [2] and 0.652 under setting [4]. Also, the half-maximal activity concentration (AC50) is 33.2 µM [falling, partial curve, poor fit] under setting [3] and 14.8 µM [falling, partial curve] under setting [5].
For `CC(=O)NC(C)c1ccc(Oc2ccc(OC(C)C)cc2)cc1` (stereo not given), the z-score reads like this: under setting [1], 0.698; under setting [2], 0.979; under setting [4], 0.749. In addition, the concentration at half-maximal activity (AC50) runs as follows: under setting [3], 29.6 µM [falling, single point]; under setting [5], 23.5 µM [falling, partial curve, poor fit].
For `CC1(C)C(N(O)C(=O)Nc2ccc(Cl)cc2)N(c2ccc(Cl)cc2)C(=O)N1CC(=O)NN=CC=Cc1ccc([N+](=O)[O-])o1` (stereo not given), the z-score under setting [1] is -0.0156, the z-score under setting [2] was found to be 0.0479 and the z-score under setting [4] was -0.111. The AC50 runs as follows: under setting [3], 11.8 µM [falling, partial curve]; under setting [5], 26.4 µM [falling, single point].
As to `CCNC(=O)Nc1ccc(-c2nc3c(c(N4CCOC[C@H]4C)n2)CCN(C2COC2)C3)cc1`, the z-score under setting [1] is -0.258, the z-score under setting [2] was -0.444 and the z-score under setting [4] was -0.293. Besides, the AC50 by setting is: under setting [3], 2.64 µM [falling, full curve]; under setting [5], 2.96 µM [falling, full curve].
Take `COc1cccc2cc(-c3nc(C4CCC(C(=O)O)CC4)n4ncnc(N)c34)[nH]c12` (stereo not given): the z-score was -0.32 under setting [1], -0.42 under setting [2] and -0.295 under setting [4]. The half-maximal activity concentration (AC50) by setting is: under setting [3], 11.8 µM [falling, full curve]; under setting [5], 5.26 µM [falling, partial curve].
As to `C=CCNC1=C2C[C@@H](C)C[C@H](OC)[C@@H](O)[C@@H](C)C=C(C)[C@H](OC(N)=O)[C@@H](OC)C=CC=C(C)C(=O)NC(=CC1=O)C2=O`, the z-score was -0.656 under setting [1], -0.919 under setting [2] and -1.78 under setting [4]. The AC50 is 13.2 µM [falling, partial curve] under setting [3] and 0.418 µM [falling, full curve] under setting [5].
For `CN(C1CCc2c(c3ccccc3n2CC(=O)O)C1)S(=O)(=O)c1ccc(F)cc1` (stereo not given), the z-score under setting [1] is -0.494, the z-score under setting [2] came out at 0.607 and the z-score under setting [4] is -0.142. The half-maximal activity concentration (AC50) by setting is: under setting [3], 10.5 µM [falling, partial curve, poor fit]; under setting [5], 1.87 µM [falling, full curve].
On to `CN1CCCN(C(=O)c2cccc(-c3ccc(C=C4C(=O)Nc5ccc(Cl)cc54)o3)c2)CC1`, for which the z-score is 0.105 under setting [1], -0.878 under setting [2] and 0.329 under setting [4]. The AC50 under setting [3] was 14.8 µM [falling, partial curve] and the AC50 under setting [5] is 23.5 µM [falling, partial curve].
Take `C[C@@H](Oc1ccc2[nH]nc(C=Cc3cnn(CCO)c3)c2c1)c1c(Cl)cncc1Cl`: the z-score was -0.476 under setting [1], 0.0041 under setting [2] and -1.33 under setting [4]. Besides, the half-maximal activity concentration (AC50) is 16.6 µM [falling, partial curve] under setting [3] and 23.5 µM [falling, partial curve] under setting [5].
In the case of `CC(=O)O[C@]1(C(C)=O)CC[C@H]2[C@@H]3C=C(C)C4=CC(=O)CC[C@]4(C)[C@@H]3CC[C@@]21C`, the z-score is -0.524 under setting [1], 0.506 under setting [2] and 1.19 under setting [4]. The AC50 is, setting by setting: under setting [3], 33.2 µM [falling, single point]; under setting [5], 6.62 µM [falling, full curve].

Source of the values: PubChem BioAssay (NCATS).
